Results: the supplement of paper PMC8728848
The list shows a part of the results.

Key:
Assay in all cases: glycan array binding signal (z-score within array); higher = stronger binding
Conditions in all cases: glycan notation: IUPAC condensed, linker removed
[1] = target: Glc(a1-4)Glc
How it was run: (§1)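 The binding signal is a Z-score computed within each array and averaged over linkers. Arrays of the same protein sequence at different concentrations or buffers were also averaged together. Data originate from 3228 arrays in the Consortium for Functional Glycomics database, kept only where the protein sequence was available.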

[2] = target: Glc(a1-6)Glc(a1-6)Glc
How it was run: as §1

[3] = target: Glc(b1-4)Glc
How it was run: as §1

[4] = target: Glc(b1-6)Glc
How it was run: as §1

[5] = target: GlcA(b1-3)Gal
How it was run: as §1

[6] = target: GlcA(b1-3)GlcNAc
How it was run: as §1

[7] = target: GlcA(b1-6)Gal
How it was run: as §1

[8] = target: GlcNAc(a1-3)Gal(b1-4)GlcNAc
How it was run: as §1

[9] = target: GlcNAc(a1-4)Gal(b1-3)GlcNAc
How it was run: as §1

[10] = target: GlcNAc(a1-4)Gal(b1-4)GalNAc
How it was run: as §1

[11] = target: GlcNAc(a1-4)Gal(b1-4)GlcNAc
How it was run: as §1

[12] = target: GlcNAc(a1-4)Gal(b1-4)GlcNAc(b1-3)Gal(b1-4)Glc
How it was run: as §1

[13] = target: GlcNAc(a1-4)Gal(b1-4)GlcNAc(b1-3)Gal(b1-4)GlcNAc
How it was run: as §1

[14] = target: GlcNAc(a1-4)Gal(b1-4)GlcNAc(b1-3)Gal(b1-4)GlcNAc(b1-3)Gal(b1-4)GlcNAc
How it was run: as §1

[15] = target: GlcNAc(a1-4)Gal(b1-4)GlcNAc(b1-3)Gal(b1-4)[Fuc(a1-3)]GlcNAc(b1-3)Gal(b1-4)[Fuc(a1-3)]GlcNAc
How it was run: as §1

[16] = target: GlcNAc(a1-6)Gal(b1-4)GlcNAc
How it was run: as §1

[17] = target: GlcNAc(b1-2)Gal(b1-3)GalNAc
How it was run: as §1

[18] = target: GlcNAc(b1-2)Man(a1-3)[GlcNAc(b1-2)Man(a1-6)]Man(b1-4)GlcNAc(b1-4)GlcNAc
How it was run: as §1

[19] = target: GlcNAc(b1-2)Man(a1-3)[GlcNAc(b1-2)Man(a1-6)]Man(b1-4)GlcNAc(b1-4)[Fuc(a1-6)]GlcNAc
How it was run: as §1

[20] = target: GlcNAc(b1-3)Gal
How it was run: as §1

[21] = target: GlcNAc(b1-3)Gal(b1-3)GalNAc
How it was run: as §1

[22] = target: GlcNAc(b1-3)Gal(b1-4)Glc
How it was run: as §1

[23] = target: GlcNAc(b1-3)Gal(b1-4)GlcNAc
How it was run: as §1

[24] = target: GlcNAc(b1-3)Gal(b1-4)GlcNAc(b1-3)Gal(b1-4)GlcNAc
How it was run: as §1

[25] = target: GlcNAc(b1-3)GalNAc
How it was run: as §1

[26] = target: GlcNAc(b1-3)Man
How it was run: as §1

[27] = target: GlcNAc(b1-3)[GlcNAc(b1-4)][GlcNAc(b1-6)]GlcNAc
How it was run: as §1

[28] = target: GlcNAc(b1-3)[GlcNAc(b1-6)]Gal(b1-4)GlcNAc
How it was run: as §1

[29] = target: GlcNAc(b1-3)[GlcNAc(b1-6)]GalNAc
How it was run: as §1

[30] = target: GlcNAc(b1-4)Gal(b1-4)GlcNAc
How it was run: as §1

[31] = target: GlcNAc(b1-4)GlcNAc
How it was run: as §1

[32] = target: GlcNAc(b1-4)GlcNAc(b1-4)GlcNAc
How it was run: as §1

[33] = target: GlcNAc(b1-4)GlcNAc(b1-4)GlcNAc(b1-4)GlcNAc(b1-4)GlcNAc
How it was run: as §1

[34] = target: GlcNAc(b1-4)GlcNAc(b1-4)GlcNAc(b1-4)GlcNAc(b1-4)GlcNAc(b1-4)GlcNAc
How it was run: as §1

[35] = target: GlcNAc(b1-4)[GlcNAc(b1-6)]GalNAc
How it was run: as §1

[36] = target: GlcNAc(b1-6)Gal(b1-4)GlcNAc
How it was run: as §1

B1: PP2A1 (Arabidopsis thaliana) (protein)
chain: MFRNQDSKYLIPVQKEAPPVTTLPMKASTVKSPHNCEAILRDADPPISLSSVNLSEQLRSGVFLKPKKQIKYWVDERNSNCFMLFAKNLSITWSDDVNYWTWFTEKESPNENVEAVGLKNVCWLDITGKFDTRNLTPGIVYEVVFKVKLEDPAYGWDTPVNLKLVLPNGKEKPQEKKVSLRELPRYKWVDVRVGEFVPEKSAAGEITFSMYEHAAGVWKKGLSLKGVAIRPKQHHHHHH
B1 was tested. Which “glycan array binding signal (z-score)” value [1] did it give?
Its value is -0.166.

And the “glycan array binding signal (z-score)” value [2]?
Its value is -0.437.

What about the “glycan array binding signal (z-score)” value [3] of the same binder?
The value was -0.133.

And the “glycan array binding signal (z-score)” value [4]?
Its value is -0.56.

And the “glycan array binding signal (z-score)” value [5]?
The value was -0.254.

What about the “glycan array binding signal (z-score)” value [6] of the same binder?
The value was -0.177.

And the “glycan array binding signal (z-score)” value [7]?
The value was 0.339.

And the “glycan array binding signal (z-score)” value [8]?
Its value is -0.581.

And the “glycan array binding signal (z-score)” value [9]?
The value was 0.337.

What about the “glycan array binding signal (z-score)” value [10] of the same binder?
Its value is 1.26.

What about the “glycan array binding signal (z-score)” value [11] of the same binder?
The value was -0.026.

What about the “glycan array binding signal (z-score)” value [12] of the same binder?
The value was -0.212.

And the “glycan array binding signal (z-score)” value [13]?
The value was 0.172.

What about the “glycan array binding signal (z-score)” value [14] of the same binder?
Its value is -0.439.

What about the “glycan array binding signal (z-score)” value [15] of the same binder?
The value was 2.05.

And the “glycan array binding signal (z-score)” value [16]?
Its value is -0.489.

What about the “glycan array binding signal (z-score)” value [17] of the same binder?
Its value is -0.576.

And the “glycan array binding signal (z-score)” value [18]?
Its value is 0.779.

And the “glycan array binding signal (z-score)” value [19]?
The value was 1.08.

What about the “glycan array binding signal (z-score)” value [20] of the same binder?
The value was -0.504.

What about the “glycan array binding signal (z-score)” value [21] of the same binder?
Its value is -0.583.

What about the “glycan array binding signal (z-score)” value [22] of the same binder?
The value was -0.424.

What about the “glycan array binding signal (z-score)” value [23] of the same binder?
The value was -0.321.

What about the “glycan array binding signal (z-score)” value [24] of the same binder?
The value was -0.708.

What about the “glycan array binding signal (z-score)” value [25] of the same binder?
Its value is -0.555.

What about the “glycan array binding signal (z-score)” value [26] of the same binder?
The value was -0.596.

What about the “glycan array binding signal (z-score)” value [27] of the same binder?
Its value is -0.303.

And the “glycan array binding signal (z-score)” value [28]?
Its value is -0.643.

What about the “glycan array binding signal (z-score)” value [29] of the same binder?
Its value is -0.419.

And the “glycan array binding signal (z-score)” value [30]?
Its value is -0.64.

And the “glycan array binding signal (z-score)” value [31]?
Its value is -0.6.

And the “glycan array binding signal (z-score)” value [32]?
The value was 2.52.

And the “glycan array binding signal (z-score)” value [33]?
The value was 1.81.

And the “glycan array binding signal (z-score)” value [34]?
Its value is 0.665.

And the “glycan array binding signal (z-score)” value [35]?
Its value is -0.751.

And the “glycan array binding signal (z-score)” value [36]?
Its value is -0.455.
